Reference: paper doi:10.1101/2025.10.08.681078 (bioRxiv, 2025)
Results are given in words; binding and its absence hold for the method and conditions named. Some binding calls cover weakened binding; strength is not graded here. Where a sequence is shown, tags or fusion partners need not be part of it.

Legend:
[1] = molecular target: Flag-tagged human MLC1 (human, UniProt Q15049); assay: oligomer bands on a western blot
[2] = molecular target: Flag-tagged mouse MLC1 (mouse, UniProt Q8VHK5); assay: oligomer bands on a western blot

B1: Flag-tagged human MLC1 (protein, UniProt Q15049 1-377)
chain: MTQEPFREELAYDRMPTLERGRQDPASYAPDAKPSDLQLSKRLPPCFSHKTWVFSVLMGSCLLVTSGFSLYLGNVFPAEMDYLRCAAGSCIPSAIVSFTVSRRNANVIPNFQILFVSTFAVTTTCLIWFGCKLVLNPSAININFNLILLLLLELLMAATVIIAARSSEEDCKKKKGSMSDSANILDEVPFPARVLKSYSVVEVIAGISAVLGGIIALNVDDSVSGPHLSVTFFWILVACFPSAIASHVAAECPSKCLVEVLIAISSLTSPLLFTASGYLSFSIMRIVEMFKDYPPAIKPSYDVLLLLLLLVLLLQAGLNTGTAIQCVRFKVSARLQGASWDTQNGPQERLAGEVARSPLKEFDKEKAWRAVVVQMAQ
binding [1]: binds

B2: Flag-tagged mouse MLC1 (protein, UniProt Q8VHK5 1-382)
chain: MTREGQFREELGYDRMPTLERGRQDAGRQDPGSYTPDSKPKDLQLSKRLPPCFSYKTWVFSVLMGSCLLVTSGFSLYLGNVFPSEMDYLRCAAGSCIPSAIVSFAVGRRNVSAIPNFQILFVSTFAVTTTCLIWFGCKLILNPSAININFNLILLLLLELLMAATVIISARSSEEPCKKKKGSISDGSNILDEVTFPARVLKSYSVVEVIAGVSAVLGGVIALNVEEAVSGPHLSVTFFWILVACFPSAIASHVTAECPSKCLVEVLIAISSLTSPLLFTASGYLSFSVMRVVEIFKDYPPAIKSYDVLLLLLLLLLLLQGGLNTGTAIQCVSFKVSARLQAASWDPQSCPQERPAGEVVRGPLKEFDKEKAWRAVVVQMAQ
binding [2]: binds
